Reference: US12509449B2, “Anthelmintic compounds comprising a quinoline structure” (Intervet Inc., priority 2019, dated 2025)
pEC50: −log10 of the molar value. Some entries share one result that the patent states for a list of compounds.

Chains of the proteins cited; added tags and fusions are not shown. Lines headed by an entry give the natural chain unless they say otherwise; changes in a name come on top. Residues count along the entry.
UniProt Q12791, 1-1178 isoform Q12791-5: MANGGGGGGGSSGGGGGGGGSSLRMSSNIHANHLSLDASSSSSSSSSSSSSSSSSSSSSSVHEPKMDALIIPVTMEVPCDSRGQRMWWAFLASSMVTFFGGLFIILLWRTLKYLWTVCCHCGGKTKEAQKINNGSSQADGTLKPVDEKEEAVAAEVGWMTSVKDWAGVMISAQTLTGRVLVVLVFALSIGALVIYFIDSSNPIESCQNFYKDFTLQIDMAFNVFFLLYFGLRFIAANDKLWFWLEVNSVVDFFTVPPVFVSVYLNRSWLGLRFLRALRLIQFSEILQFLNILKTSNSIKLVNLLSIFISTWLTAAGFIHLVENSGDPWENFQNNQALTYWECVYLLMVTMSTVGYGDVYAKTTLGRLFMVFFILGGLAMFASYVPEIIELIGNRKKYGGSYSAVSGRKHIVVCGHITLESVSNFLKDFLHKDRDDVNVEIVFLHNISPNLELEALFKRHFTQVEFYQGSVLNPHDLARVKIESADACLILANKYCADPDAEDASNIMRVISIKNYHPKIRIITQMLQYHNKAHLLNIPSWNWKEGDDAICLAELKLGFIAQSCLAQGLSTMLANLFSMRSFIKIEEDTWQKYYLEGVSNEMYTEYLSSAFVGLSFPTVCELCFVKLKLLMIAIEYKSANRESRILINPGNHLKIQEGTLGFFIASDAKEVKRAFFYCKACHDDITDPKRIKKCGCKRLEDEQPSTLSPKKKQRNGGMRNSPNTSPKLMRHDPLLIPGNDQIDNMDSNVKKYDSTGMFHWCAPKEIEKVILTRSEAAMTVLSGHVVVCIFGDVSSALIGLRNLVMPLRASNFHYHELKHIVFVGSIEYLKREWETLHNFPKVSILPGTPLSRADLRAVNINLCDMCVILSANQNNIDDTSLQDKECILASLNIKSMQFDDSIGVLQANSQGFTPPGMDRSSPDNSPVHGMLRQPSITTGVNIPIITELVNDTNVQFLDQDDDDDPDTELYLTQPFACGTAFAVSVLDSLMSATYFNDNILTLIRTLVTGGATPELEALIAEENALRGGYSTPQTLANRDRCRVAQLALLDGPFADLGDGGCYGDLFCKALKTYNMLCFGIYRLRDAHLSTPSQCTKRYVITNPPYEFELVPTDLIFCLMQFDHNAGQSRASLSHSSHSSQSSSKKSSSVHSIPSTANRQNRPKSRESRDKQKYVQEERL
UniProt Q95V25: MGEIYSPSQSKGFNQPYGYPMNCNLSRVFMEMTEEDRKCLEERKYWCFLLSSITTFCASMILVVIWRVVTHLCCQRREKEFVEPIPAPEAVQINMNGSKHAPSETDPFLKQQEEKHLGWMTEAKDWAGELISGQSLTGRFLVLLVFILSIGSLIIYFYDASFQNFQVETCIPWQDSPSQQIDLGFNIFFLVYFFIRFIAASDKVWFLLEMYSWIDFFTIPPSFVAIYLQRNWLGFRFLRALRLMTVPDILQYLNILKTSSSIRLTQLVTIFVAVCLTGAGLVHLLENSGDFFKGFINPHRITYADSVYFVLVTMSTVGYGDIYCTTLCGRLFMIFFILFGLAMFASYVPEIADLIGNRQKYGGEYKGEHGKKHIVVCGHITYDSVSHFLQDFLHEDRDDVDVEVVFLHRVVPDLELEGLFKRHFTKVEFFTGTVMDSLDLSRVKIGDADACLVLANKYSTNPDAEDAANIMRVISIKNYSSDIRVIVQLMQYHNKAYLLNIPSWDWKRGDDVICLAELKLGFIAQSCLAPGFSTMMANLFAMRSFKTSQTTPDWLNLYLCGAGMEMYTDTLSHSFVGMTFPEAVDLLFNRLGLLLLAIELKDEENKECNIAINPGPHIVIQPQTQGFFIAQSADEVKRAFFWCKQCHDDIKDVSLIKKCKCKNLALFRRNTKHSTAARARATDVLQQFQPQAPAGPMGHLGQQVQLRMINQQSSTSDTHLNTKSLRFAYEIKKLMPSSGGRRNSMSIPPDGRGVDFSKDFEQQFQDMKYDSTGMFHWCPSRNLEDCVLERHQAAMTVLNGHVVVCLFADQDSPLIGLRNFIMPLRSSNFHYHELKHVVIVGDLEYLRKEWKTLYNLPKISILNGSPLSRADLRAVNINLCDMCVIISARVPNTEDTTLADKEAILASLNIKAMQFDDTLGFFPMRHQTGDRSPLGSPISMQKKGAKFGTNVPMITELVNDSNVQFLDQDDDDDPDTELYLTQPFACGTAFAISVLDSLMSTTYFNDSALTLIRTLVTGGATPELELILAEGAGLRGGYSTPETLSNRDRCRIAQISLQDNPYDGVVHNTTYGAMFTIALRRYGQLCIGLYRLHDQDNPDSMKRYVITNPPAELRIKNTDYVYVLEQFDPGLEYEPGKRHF

Experiments:
[1] = test system: Ascaridia galli L3; experiment: In vitro assay Ascaridia galli larval stage 3, minimum effective concentration; format: cell-based; details: 20 larvae per well, microscopic examination
Description: (§1) […] galli (intestinal roundworm of chicken), larval stage 3 (“L3”); and Oesophagostumum dentatum (nodular worm of swine), larval stages 3 and 4 (respectively “L3” and “L4”) where suspended in a nutrient medium and distributed to 96 well plates with 20 larvae per well. The wells were spiked DMSO solutions of the compounds with declining concentration.

[2] = molecular target: T1, human Maxi K channel (BK channel), KCNMA1 (KCa1.1) and beta1 (KCNMB1) subunits (Homo sapiens, UniProt Q12791); experiment: Agonistic activity at the human Maxi K channel (BK channel), membrane potential (FLIPR) in transfected CHO K1 cells; format: cell-based; details: membrane potential dye, 70 mM KCl
T1 construct: expressed in transfected cells; host or cells: CHO K1
Description: A CHO K1 cell line was stably transfected with the KCNMA1 (KCa1.1, U11058) and beta1 (KCNMB1) subunits of the human Maxi K channel (Ponte et al, Molecular Pharmacology 2012, 81(4), 567-577).
The complete measurement takes 150 s.

[3] = molecular target: Caenorhabditis elegans slo-1a (Caenorhabditis elegans, UniProt Q95V25); experiment: Agonistic activity at C. elegans Slo-1a, membrane potential (FLIPR) in transfected CHO K1 cells; details: read-out: EC50 agonistic activity at C. elegans Slo-1a, membrane potential dye, 70 mM KCl
[4] = test system: Oesophagostumum dentatum L3; experiment: In vitro assay Oesophagostumum dentatum larval stage 3, minimum effective concentration; format: cell-based; details: 20 larvae per well, microscopic examination
Description: as §1

[5] = test system: Oesophagostumum dentatum L4; experiment: In vitro assay Oesophagostumum dentatum larval stage 4, minimum effective concentration; format: cell-based; details: 20 larvae per well, microscopic examination
Description: as §1

[6] = test system: Acanthocheilonema viteae L1; experiment: In vitro assay Acanthocheilonema viteae L1 (microfilaria) motility; format: cell-based; details: incubation 3 days, read-out: EC50 Acanthocheilonema viteae L1, reduction in motility
Protocol: Approximately 500 A. viteae microfilaria were added to a microtiter plate containing a nutrient medium and the test compound in DMSO at varying concentrations. After incubation for 3 days, activity was evaluated as reduction in motility as compared to DMSO as negative control. Compounds were tested in duplicates. Based on the concentration response curves EC50 values were calculated.

Compound | MEC (minimum effective concentration) against Ascaridia galli L3 [1] | pEC50 [2] | pEC50 [3] | MEC (minimum effective concentration) against Oesophagostumum dentatum L3 [4] | MEC (minimum effective concentration) against Oesophagostumum dentatum L4 [5] | pEC50 [6]
O=C(Nc1cnc2c(-c3cc(Cl)cc(Cl)c3)c(C(F)(F)F)ccc2c1N1CCOCC1)C1CCOc2ccccc21 (racemic) [Compound 210] | ≤ 50 µM | – | – | – | – | –
COc1c(NC(=O)C2CCOc3ccccc32)cnc2c(-c3cc(Cl)cc(Cl)c3)c(C)ccc12 (racemic) [Compound 173] | ≤ 50 µM | < 4.52 | > 5.00 | – | – | –
CC(C)Oc1c(NC(=O)c2cccc3ccccc23)cnc2c(-c3cccc(Cl)c3Cl)c(F)ccc12 [Compound 152] | – | < 4.52 | – | – | – | –
COc1ccc(CC(=O)Nc2cnc3c(-c4cccc(Cl)c4Cl)cccc3c2N(C)C)cc1 [Compound 27] | – | < 4.52 | > 5.00 | ≤ 50 µM | ≤ 50 µM | –
CCN(C(=O)C1CCOc2ccccc21)c1cnc2c(-c3cccc(Cl)c3Cl)cccc2c1N(C)C (racemic) [Compound 161] | – | < 4.52 | – | ≤ 50 µM | – | > 5.00
C=C(C)c1c(NC(=O)C2CCCc3ccccc32)cnc2c(-c3cc(Cl)cc(Cl)c3)cccc12 (racemic) [Compound 193] | ≤ 50 µM | < 4.52 | > 5.00 | ≤ 50 µM | – | –
CN(C)c1c(NC(=O)C2CCOc3ccccc32)cnc2c(-c3cccc(Cl)c3Cl)c(Cl)ccc12 (racemic) [Compound 166] | – | < 4.52 | – | – | – | –
CC(C)Nc1c(NC(=O)C2CCOc3ccccc32)cnc2c(-c3cccc(Cl)c3Cl)cccc12 (racemic) [Compound 87] | – | < 4.52 | – | – | – | > 5.00
CN(C)c1ccc(CC(=O)Nc2cnc3c(-c4cccc(Cl)c4Cl)cccc3c2N(C)C)cc1 [Compound 48] | – | < 4.52 | > 5.00 | ≤ 50 µM | ≤ 50 µM | –
O=C(Nc1cnc2c(-c3cccc(Cl)c3Cl)c(Cl)ccc2c1N1CCOCC1)C1CCOc2ccccc21 (racemic) [Compound 167] | – | < 4.52 | – | – | – | –
COc1c(NC(=O)C2CCc3ccccc32)cnc2c(-c3cccc(Cl)c3Cl)c(Cl)ccc12 (stereo not drawn) [Compound 177] | ≤ 50 µM | < 4.52 | – | ≤ 50 µM | – | –
COc1c(NC(=O)Cc2ccccc2)cnc2c(-c3cc(Cl)cc(Cl)c3)cccc12 [Compound 4] | ≤ 50 µM | – | – | ≤ 50 µM | ≤ 50 µM | –
CC(C)Oc1c(NC(=O)C2CCc3ccccc32)cnc2c(-c3cc(Cl)cc(Cl)c3)c(F)ccc12 (racemic) [Compound 137] | – | < 4.52 | – | ≤ 50 µM | ≤ 50 µM | –
CC(C)Oc1c(NC(=O)c2cccc3ccccc23)cnc2c(-c3cccc(Cl)c3Cl)cccc12 [Compound 61] | – | < 4.52 | – | – | – | –
Cc1c(NC(=O)C2CCOc3ccccc32)cnc2c(-c3cccc(Cl)c3Cl)cccc12 (racemic) [Compound 203] | – | < 4.52 | – | – | – | –
C=C(C)c1c(NC(=O)C2CCOc3ccccc32)cnc2c(-c3cc(Cl)cc(Cl)c3)cccc12 (racemic) [Compound 196] | ≤ 50 µM | < 4.52 | > 5.00 | ≤ 50 µM | – | –
O=C(Nc1cnc2c(-c3cccc(Cl)c3Cl)c(C(F)(F)F)ccc2c1N1CCOCC1)C1CCOc2ccccc21 (racemic) [Compound 209] | – | – | – | ≤ 50 µM | – | –

Compound | MEC (minimum effective concentration) against Ascaridia galli L3 [1] | pEC50 [2] | pEC50 [3] | MEC (minimum effective concentration) against Oesophagostumum dentatum L3 [4] | MEC (minimum effective concentration) against Oesophagostumum dentatum L4 [5] | pEC50 [6]
COc1c(NC(=O)C2CCc3ccccc32)cnc2c(-c3cccc(Cl)c3Cl)c(C)ccc12 (stereo not drawn) [Compound 176] | ≤ 50 µM | < 4.52 | – | – | – | –
Cc1ccc2c(N3CCOCC3)c(NC(=O)C3CCc4ccccc43)cnc2c1-c1cc(Cl)cc(Cl)c1 (stereo not drawn) [Compound 181] | – | < 4.52 | > 5.00 | – | – | –
CN(C(=O)C1CCOc2ccccc21)c1cnc2c(-c3cc(Cl)cc(Cl)c3)cccc2c1N1CCOCC1 (racemic) [Compound 157] | ≤ 50 µM | < 4.52 | – | – | – | –
Cc1cccc(C(C)C(=O)Nc2cnc3c(-c4cccc(Cl)c4Cl)cccc3c2N(C)C)c1 (racemic) [Compound 44] | ≤ 50 µM | < 4.52 | > 5.00 | – | – | –
N-(8-(2,3-dichlorophenyl)-4-morpholinoquinolin-3-yl)chromane-4-carboxamide [Compound 83] | ≤ 50 µM | < 4.52 | – | – | – | –
Cc1ccc2c(N(C)C)c(NC(=O)C3CCOc4ccccc43)cnc2c1-c1cccc(Cl)c1Cl (racemic) [Compound 168] | – | < 4.52 | – | – | – | –
CN(C)c1c(NC(=O)C2CCOc3ccccc32)cnc2c(-c3cccc(Cl)c3Cl)c(C(F)(F)F)ccc12 (racemic) [Compound 211] | – | – | – | ≤ 50 µM | – | –
O=C(Nc1cnc2c(-c3cccc(Cl)c3Cl)cccc2c1N1CCCC1)C1CCOc2ccccc21 (racemic) [Compound 17] | ≤ 50 µM | < 4.52 | – | – | – | –
Cc1ccc2c(N(C)C)c(NC(=O)C3CCOc4ccccc43)cnc2c1-c1cc(Cl)cc(Cl)c1 (racemic) [Compound 175] | ≤ 50 µM | < 4.52 | > 5.00 | – | – | –
COc1c(NC(=O)C2CCOc3ccccc32)cnc2c(-c3cc(Cl)cc(Cl)c3)c(Cl)ccc12 (racemic) [Compound 172] | ≤ 50 µM | < 4.52 | > 5.00 | – | – | –
O=C(Nc1cnc2c(-c3cc(Cl)cc(Cl)c3)c(Cl)ccc2c1N1CCOCC1)C1CCc2ccccc21 (stereo not drawn) [Compound 179] | – | < 4.52 | – | – | – | –
COc1c(NC(=O)Cc2ccccc2)cnc2c(-c3cccc(Cl)c3Cl)cccc12 [Compound 2] | ≤ 50 µM | – | – | – | – | –
CN(C)c1c(N(C)C(=O)C2CCOc3ccccc32)cnc2c(-c3cccc(Cl)c3Cl)cccc12 (racemic) [Compound 160] | ≤ 50 µM | < 4.52 | > 5.00 | ≤ 50 µM | ≤ 50 µM | > 5.00
CC(C)Oc1c(NC(=O)C2CCOc3ccccc32)cnc2c(-c3cccc(Cl)c3Cl)c(F)ccc12 (racemic) [Compound 132] | ≤ 50 µM | < 4.52 | – | ≤ 50 µM | – | > 5.00
COc1c(NC(=O)C2CCOc3ccccc32)cnc2c(-c3cccc(Cl)c3Cl)c(Cl)ccc12 (racemic) [Compound 165] | ≤ 50 µM | < 4.52 | – | ≤ 50 µM | – | –
CC(C)Oc1c(NC(=O)C2CCc3ccccc32)cnc2c(-c3cccc(Cl)c3Cl)cccc12 (racemic) [Compound 60] | ≤ 50 µM | < 4.52 | – | – | – | –
CN(C)c1c(NC(=O)C2CCOc3ccccc32)cnc2c(-c3cc(Cl)cc(Cl)c3)c(C(F)(F)F)ccc12 (racemic) [Compound 212] | ≤ 50 µM | – | – | ≤ 50 µM | ≤ 50 µM | –
